# Laboratory results: the supplement of paper PMC8728848
# Some of the results follow.
# B1: Epa21 (Candida glabrata) (protein)
# chain: MGSSHHHHHHSSGLVPRGSHMASTPNIESHPQGCSPVDTSGIKPGLKMDLYRFPITPPGTGCWSWDWLTVTPDFPRSGYWKWPKIAEVDGVVGPLHLDSGHPTCDPLTSVLPHGFNYLQSITTTNFTMVLHGYFVPKQSGKYTFEFKADDALLLNLGAGNAFSCCDYNNSQYNQGEYLAYAIWSKNNQTATLYLEKGIYYPIRVFYHNRCCGAYMDVVYYFNDSPIPNRDFSGLLFSIPDSDSCDANI
# Legend:
# Assay in all cases: glycan array binding signal (z-score within array); higher = stronger binding
# Settings in all cases: glycan notation: IUPAC condensed, linker removed
# [1] = target: Fuc(a1-2)[GalNAc(a1-3)]Gal(b1-3)GlcNAc(b1-3)GalNAc
# Outline: (§1)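 Glycan array data came from 3228 arrays in the Consortium for Functional Glycomics database, and only arrays with an available protein sequence were kept. Glycan names were put into IUPAC-condensed notation, and columns mapping to the same glycan were averaged. The binding signal is a within-array Z-score, averaged across arrays of one protein sequence run at different concentrations or buffers and across linkers. A negative Z-score can be read as non-binding.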
# [2] = target: Fuc(a1-2)[GalNAc(a1-3)]Gal(b1-3)GlcNAc(b1-6)GalNAc
# Outline: as §1
# [3] = target: Fuc(a1-2)[GalNAc(a1-3)]Gal(b1-4)Glc
# Outline: as §1
# [4] = target: Fuc(a1-2)[GalNAc(a1-3)]Gal(b1-4)GlcNAc
# Outline: as §1
# [5] = target: Fuc(a1-2)[GalNAc(a1-3)]Gal(b1-4)GlcNAc(b1-2)Man
# Outline: as §1
# [6] = target: Fuc(a1-2)[GalNAc(a1-3)]Gal(b1-4)GlcNAc(b1-2)Man(a1-3)[Fuc(a1-2)[GalNAc(a1-3)]Gal(b1-4)GlcNAc(b1-2)Man(a1-6)]Man(b1-4)GlcNAc(b1-4)GlcNAc
# Outline: as §1
# [7] = target: Fuc(a1-2)[GalNAc(a1-3)]Gal(b1-4)GlcNAc(b1-2)Man(a1-3)[Fuc(a1-2)[GalNAc(a1-3)]Gal(b1-4)GlcNAc(b1-2)Man(a1-6)]Man(b1-4)GlcNAc(b1-4)[Fuc(a1-6)]GlcNAc
# Outline: as §1
# [8] = target: Fuc(a1-2)[GalNAc(a1-3)]Gal(b1-4)GlcNAc(b1-3)Gal(b1-4)GlcNAc
# Outline: as §1
# [9] = target: Fuc(a1-2)[GalNAc(a1-3)]Gal(b1-4)GlcNAc(b1-3)Gal(b1-4)GlcNAc(b1-3)Gal(b1-4)GlcNAc
# Outline: as §1
# [10] = target: Fuc(a1-2)[GalNAc(a1-3)]Gal(b1-4)GlcNAc(b1-3)GalNAc
# Outline: as §1
# [11] = target: Fuc(a1-2)[GalNAc(a1-3)]Gal(b1-4)GlcNAc(b1-3)[Fuc(a1-2)[GalNAc(a1-3)]Gal(b1-4)GlcNAc(b1-6)]GalNAc
# Outline: as §1
# [12] = target: Fuc(a1-2)[GalNAc(a1-3)]Gal(b1-4)GlcNAc(b1-6)GalNAc
# Outline: as §1
# [13] = target: Fuc(a1-2)[GalNAc(a1-3)]Gal(b1-4)[Fuc(a1-3)]GlcNAc
# Outline: as §1
# [14] = target: Fuc(a1-2)[GalNAc(a1-3)]Gal(b1-4)[Fuc(a1-3)]GlcNAc(b1-3)GalNAc
# Outline: as §1
# [15] = target: Fuc(a1-2)[GalNAc(a1-4)]Gal(b1-4)GlcNAc
# Outline: as §1
# [16] = target: Fuc(a1-2)[GalNAc(b1-3)]Gal
# Outline: as §1
# Fuc(a1-3)GlcNAc = target: Fuc(a1-3)GlcNAc
# Outline: as §1
# [17] = target: Fuc(a1-3)[Gal(b1-4)]Glc6S
# Outline: as §1
# [18] = target: Fuc(a1-3)[Gal(b1-4)]GlcNAc
# Outline: as §1
# [19] = target: Fuc(a1-3)[Gal(b1-4)]GlcNAc(b1-2)Man
# Outline: as §1
# [20] = target: Fuc(a1-3)[Gal(b1-4)]GlcNAc(b1-2)Man(a1-3)[Fuc(a1-3)[Gal(b1-4)]GlcNAc(b1-2)Man(a1-6)]Man(b1-4)GlcNAc(b1-4)GlcNAc
# Outline: as §1
# [21] = target: Fuc(a1-3)[Gal(b1-4)]GlcNAc(b1-2)Man(a1-3)[Fuc(a1-3)[Gal(b1-4)]GlcNAc(b1-2)Man(a1-6)]Man(b1-4)GlcNAc(b1-4)[Fuc(a1-6)]GlcNAc
# Outline: as §1
# [22] = target: Fuc(a1-3)[Gal(b1-4)]GlcNAc(b1-3)Gal(b1-3)[Fuc(a1-4)]GlcNAc
# Outline: as §1
# [23] = target: Fuc(a1-3)[Gal(b1-4)]GlcNAc(b1-3)Gal(b1-4)[Fuc(a1-3)]GlcNAc
# Outline: as §1
# [24] = target: Fuc(a1-3)[Gal(b1-4)]GlcNAc(b1-3)Gal(b1-4)[Fuc(a1-3)]GlcNAc(b1-3)Gal(b1-4)[Fuc(a1-3)]GlcNAc
# Outline: as §1
# [25] = target: Fuc(a1-3)[Gal(b1-4)]GlcNAc(b1-3)GalNAc
# Outline: as §1
# [26] = target: Fuc(a1-3)[Gal(b1-4)]GlcNAc(b1-6)GalNAc
# Outline: as §1
# [27] = target: Fuc(a1-3)[Gal(b1-4)]GlcNAc(b1-6)[Gal(b1-3)GlcNAc(b1-3)]Gal(b1-4)Glc
# Outline: as §1
# [28] = target: Fuc(a1-3)[Gal(b1-4)]GlcNAc6S
# Outline: as §1
# [29] = target: Fuc(a1-3)[Gal3S(b1-4)]Glc
# Outline: as §1
# [30] = target: Fuc(a1-3)[Gal3S(b1-4)]GlcNAc
# Outline: as §1
# [31] = target: Fuc(a1-3)[Gal3S(b1-4)]GlcNAc6S
# Outline: as §1
# [32] = target: Fuc(a1-3)[GalNAc(b1-4)]GlcNAc
# Outline: as §1
# [33] = target: Fuc(a1-3)[GalNAc(b1-4)]GlcNAc6S
# Outline: as §1
# Fuc(a1-4)GlcNAc = target: Fuc(a1-4)GlcNAc
# Outline: as §1
# Fuc(b1-3)GlcNAc = target: Fuc(b1-3)GlcNAc
# Outline: as §1
# Gal(a1-2)Gal = target: Gal(a1-2)Gal
# Outline: as §1
binder,measurement,setting,value
B1,glycan array binding signal (z-score),[1],0.937
same,glycan array binding signal (z-score),[2],-0.784
same,glycan array binding signal (z-score),[3],-0.731
same,glycan array binding signal (z-score),[4],-0.553
same,glycan array binding signal (z-score),[5],-0.471
same,glycan array binding signal (z-score),[6],-0.552
same,glycan array binding signal (z-score),[7],0.127
same,glycan array binding signal (z-score),[8],-0.274
same,glycan array binding signal (z-score),[9],0.436
same,glycan array binding signal (z-score),[10],-0.539
same,glycan array binding signal (z-score),[11],-0.445
same,glycan array binding signal (z-score),[12],-0.634
same,glycan array binding signal (z-score),[13],-0.093
same,glycan array binding signal (z-score),[14],0.819
same,glycan array binding signal (z-score),[15],-0.533
same,glycan array binding signal (z-score),[16],-0.716
same,glycan array binding signal (z-score),Fuc(a1-3)GlcNAc,-0.655
same,glycan array binding signal (z-score),[17],1.77
same,glycan array binding signal (z-score),[18],-0.96
same,glycan array binding signal (z-score),[19],-0.558
same,glycan array binding signal (z-score),[20],-0.28
same,glycan array binding signal (z-score),[21],0.852
same,glycan array binding signal (z-score),[22],-0.531
same,glycan array binding signal (z-score),[23],0.064
same,glycan array binding signal (z-score),[24],-0.594
same,glycan array binding signal (z-score),[25],0.13
same,glycan array binding signal (z-score),[26],-0.129
same,glycan array binding signal (z-score),[27],0.728
same,glycan array binding signal (z-score),[28],0.366
same,glycan array binding signal (z-score),[29],-0.444
same,glycan array binding signal (z-score),[30],0.384
same,glycan array binding signal (z-score),[31],0.671
same,glycan array binding signal (z-score),[32],0.311
same,glycan array binding signal (z-score),[33],0.119
same,glycan array binding signal (z-score),Fuc(a1-4)GlcNAc,-0.291
same,glycan array binding signal (z-score),Fuc(b1-3)GlcNAc,-1.01
same,glycan array binding signal (z-score),Gal(a1-2)Gal,-0.581

# A different layout for part of the listing above.
binder | measurement | setting | value
B1 | glycan array binding signal (z-score) | [28] | 0.366
same | glycan array binding signal (z-score) | [29] | -0.444
